According to the supplement of paper PMC10849652:
This is one part of the list.

The chains behind the UniProt entries cited, without tags or fusion partners. Where a name states a change or a piece, a line headed by the entry shows the natural chain unless it says otherwise.
UniProt Q7RTP6, whole entry, looked up: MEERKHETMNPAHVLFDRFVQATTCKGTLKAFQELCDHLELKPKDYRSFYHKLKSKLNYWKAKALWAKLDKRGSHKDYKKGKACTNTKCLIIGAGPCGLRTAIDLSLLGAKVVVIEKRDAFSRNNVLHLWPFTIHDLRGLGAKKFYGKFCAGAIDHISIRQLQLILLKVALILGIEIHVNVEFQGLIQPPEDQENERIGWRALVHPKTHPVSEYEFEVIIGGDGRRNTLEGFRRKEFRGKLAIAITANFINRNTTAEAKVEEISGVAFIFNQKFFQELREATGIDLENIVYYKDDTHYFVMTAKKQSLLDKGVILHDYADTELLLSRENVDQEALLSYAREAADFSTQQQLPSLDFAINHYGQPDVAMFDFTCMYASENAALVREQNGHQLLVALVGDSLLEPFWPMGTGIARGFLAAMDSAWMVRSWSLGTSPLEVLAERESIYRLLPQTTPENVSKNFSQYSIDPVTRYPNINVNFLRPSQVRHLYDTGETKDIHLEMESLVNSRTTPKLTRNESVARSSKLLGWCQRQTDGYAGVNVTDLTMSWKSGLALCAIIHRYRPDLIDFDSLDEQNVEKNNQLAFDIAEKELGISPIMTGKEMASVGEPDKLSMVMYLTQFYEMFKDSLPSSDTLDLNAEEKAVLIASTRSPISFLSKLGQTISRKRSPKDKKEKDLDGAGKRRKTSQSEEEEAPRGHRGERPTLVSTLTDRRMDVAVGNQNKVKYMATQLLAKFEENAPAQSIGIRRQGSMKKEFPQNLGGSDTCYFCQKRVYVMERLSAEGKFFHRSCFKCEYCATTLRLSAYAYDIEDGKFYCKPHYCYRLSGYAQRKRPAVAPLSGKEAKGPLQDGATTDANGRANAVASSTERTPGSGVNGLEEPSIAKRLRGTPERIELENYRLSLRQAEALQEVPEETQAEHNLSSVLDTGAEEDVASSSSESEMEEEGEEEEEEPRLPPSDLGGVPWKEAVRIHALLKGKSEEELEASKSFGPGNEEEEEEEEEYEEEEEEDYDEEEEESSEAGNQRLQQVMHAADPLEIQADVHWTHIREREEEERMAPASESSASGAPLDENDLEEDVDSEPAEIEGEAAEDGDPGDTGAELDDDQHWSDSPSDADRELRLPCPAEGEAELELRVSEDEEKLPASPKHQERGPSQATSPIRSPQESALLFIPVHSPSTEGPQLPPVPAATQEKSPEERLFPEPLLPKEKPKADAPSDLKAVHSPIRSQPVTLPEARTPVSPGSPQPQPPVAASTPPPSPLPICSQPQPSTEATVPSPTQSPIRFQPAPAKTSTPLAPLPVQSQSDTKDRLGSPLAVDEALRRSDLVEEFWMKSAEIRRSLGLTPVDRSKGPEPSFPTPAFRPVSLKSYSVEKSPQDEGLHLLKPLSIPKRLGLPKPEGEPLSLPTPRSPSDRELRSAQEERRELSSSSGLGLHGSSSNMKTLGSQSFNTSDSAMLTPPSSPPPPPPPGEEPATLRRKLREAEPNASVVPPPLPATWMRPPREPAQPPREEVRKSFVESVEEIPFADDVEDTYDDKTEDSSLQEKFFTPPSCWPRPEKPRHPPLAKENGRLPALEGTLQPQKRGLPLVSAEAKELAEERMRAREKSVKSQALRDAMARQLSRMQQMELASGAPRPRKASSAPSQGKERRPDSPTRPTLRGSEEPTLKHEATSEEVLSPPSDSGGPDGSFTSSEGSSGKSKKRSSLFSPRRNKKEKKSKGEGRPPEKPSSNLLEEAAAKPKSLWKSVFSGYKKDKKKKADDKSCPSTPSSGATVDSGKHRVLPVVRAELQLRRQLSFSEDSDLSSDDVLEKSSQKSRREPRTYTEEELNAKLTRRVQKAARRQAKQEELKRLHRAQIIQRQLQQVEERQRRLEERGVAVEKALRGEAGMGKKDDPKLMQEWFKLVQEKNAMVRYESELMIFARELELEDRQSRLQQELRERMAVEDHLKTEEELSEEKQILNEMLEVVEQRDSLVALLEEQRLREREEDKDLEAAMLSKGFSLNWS
UniProt Q9NZW5: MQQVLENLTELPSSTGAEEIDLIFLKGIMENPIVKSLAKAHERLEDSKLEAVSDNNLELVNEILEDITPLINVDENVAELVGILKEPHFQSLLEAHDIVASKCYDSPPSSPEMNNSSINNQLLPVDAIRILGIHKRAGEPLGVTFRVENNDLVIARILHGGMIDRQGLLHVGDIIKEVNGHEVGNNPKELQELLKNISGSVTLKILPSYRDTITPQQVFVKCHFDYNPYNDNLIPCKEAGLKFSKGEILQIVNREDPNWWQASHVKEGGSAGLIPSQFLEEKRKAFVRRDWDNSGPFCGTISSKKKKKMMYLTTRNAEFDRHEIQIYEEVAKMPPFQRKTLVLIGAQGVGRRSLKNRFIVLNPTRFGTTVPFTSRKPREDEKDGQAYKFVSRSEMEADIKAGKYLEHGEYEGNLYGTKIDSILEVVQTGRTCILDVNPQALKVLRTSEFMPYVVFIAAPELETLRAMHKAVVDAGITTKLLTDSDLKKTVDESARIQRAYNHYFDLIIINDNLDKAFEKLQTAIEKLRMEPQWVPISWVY
UniProt O95297: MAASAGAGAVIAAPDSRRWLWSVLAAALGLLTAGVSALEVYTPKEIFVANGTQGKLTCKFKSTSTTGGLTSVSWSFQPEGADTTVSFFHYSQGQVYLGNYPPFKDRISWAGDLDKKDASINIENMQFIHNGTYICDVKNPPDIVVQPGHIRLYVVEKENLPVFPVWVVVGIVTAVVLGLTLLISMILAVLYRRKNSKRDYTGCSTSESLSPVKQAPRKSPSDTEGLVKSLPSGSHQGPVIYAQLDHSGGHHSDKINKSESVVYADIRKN
UniProt Q9NV56, whole entry, looked up: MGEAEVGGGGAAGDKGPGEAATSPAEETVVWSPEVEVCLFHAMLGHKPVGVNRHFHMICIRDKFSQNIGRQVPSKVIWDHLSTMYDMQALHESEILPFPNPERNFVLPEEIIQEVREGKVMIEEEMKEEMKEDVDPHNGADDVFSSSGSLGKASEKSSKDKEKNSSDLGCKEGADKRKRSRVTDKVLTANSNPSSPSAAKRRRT
UniProt Q8NHP6: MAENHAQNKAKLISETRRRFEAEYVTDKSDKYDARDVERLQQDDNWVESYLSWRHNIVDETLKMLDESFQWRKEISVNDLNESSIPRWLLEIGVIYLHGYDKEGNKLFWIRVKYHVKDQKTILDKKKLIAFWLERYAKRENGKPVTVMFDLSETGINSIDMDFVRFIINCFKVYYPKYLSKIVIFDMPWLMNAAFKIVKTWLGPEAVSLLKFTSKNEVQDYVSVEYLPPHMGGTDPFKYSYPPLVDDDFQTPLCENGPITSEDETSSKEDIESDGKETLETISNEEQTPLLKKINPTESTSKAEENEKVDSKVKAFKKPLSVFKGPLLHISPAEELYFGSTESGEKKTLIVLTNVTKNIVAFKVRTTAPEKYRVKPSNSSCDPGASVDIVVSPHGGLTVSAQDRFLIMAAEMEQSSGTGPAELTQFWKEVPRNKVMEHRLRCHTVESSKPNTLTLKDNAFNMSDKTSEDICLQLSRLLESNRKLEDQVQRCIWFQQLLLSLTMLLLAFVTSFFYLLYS
UniProt P25325: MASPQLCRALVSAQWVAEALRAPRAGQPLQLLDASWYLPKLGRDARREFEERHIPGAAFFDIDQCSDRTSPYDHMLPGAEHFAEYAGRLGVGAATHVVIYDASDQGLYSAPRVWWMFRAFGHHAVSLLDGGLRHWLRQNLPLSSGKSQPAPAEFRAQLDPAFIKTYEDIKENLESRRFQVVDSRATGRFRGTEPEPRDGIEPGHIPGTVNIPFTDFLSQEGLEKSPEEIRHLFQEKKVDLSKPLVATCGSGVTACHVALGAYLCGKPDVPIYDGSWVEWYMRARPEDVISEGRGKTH
UniProt Q9NZB8: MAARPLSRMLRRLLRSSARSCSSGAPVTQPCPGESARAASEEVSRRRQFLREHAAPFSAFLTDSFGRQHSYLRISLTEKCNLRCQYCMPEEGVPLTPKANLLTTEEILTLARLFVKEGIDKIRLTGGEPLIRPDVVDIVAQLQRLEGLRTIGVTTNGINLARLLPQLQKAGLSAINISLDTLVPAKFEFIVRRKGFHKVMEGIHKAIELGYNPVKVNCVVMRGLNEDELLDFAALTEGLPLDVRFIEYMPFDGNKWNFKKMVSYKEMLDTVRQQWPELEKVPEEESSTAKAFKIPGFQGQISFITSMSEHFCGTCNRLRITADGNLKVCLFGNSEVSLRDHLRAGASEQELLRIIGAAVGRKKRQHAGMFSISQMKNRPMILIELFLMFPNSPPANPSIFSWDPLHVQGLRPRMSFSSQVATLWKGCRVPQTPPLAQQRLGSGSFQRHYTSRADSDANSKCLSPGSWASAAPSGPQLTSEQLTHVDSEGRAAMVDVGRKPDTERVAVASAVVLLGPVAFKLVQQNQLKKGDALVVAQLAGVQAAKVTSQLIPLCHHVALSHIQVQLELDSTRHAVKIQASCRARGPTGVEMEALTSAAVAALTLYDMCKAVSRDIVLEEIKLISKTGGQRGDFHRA
UniProt Q7L9L4: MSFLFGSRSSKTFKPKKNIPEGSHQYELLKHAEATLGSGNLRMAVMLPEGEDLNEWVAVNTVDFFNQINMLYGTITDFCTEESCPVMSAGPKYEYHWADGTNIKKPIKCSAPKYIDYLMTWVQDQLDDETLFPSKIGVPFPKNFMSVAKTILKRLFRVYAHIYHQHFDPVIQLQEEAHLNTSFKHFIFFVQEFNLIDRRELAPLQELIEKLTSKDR

What was measured:
Test in all cases: log2 fold change, soluble protein after heating vs DMSO (PISA); higher = thermal stabilisation; K562 cells, 10 uM, 30 min; active = over 0.2 and 3.5 SD of the protein, either way, in both replicates (recomputed)
[1] = compound: CS(=O)(=O)c1ccc(-c2cnc(N)c(C(=O)Nc3ccccc3)n2)cc1
Method in brief: (§1)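 Soluble protein was quantified by TMTpro 16plex LC-MS/MS after channel sums were equalised. It was obtained as the supernatant after 21,000xg for 90 min from pooled aliquots of K562 cells (2×10^6 cells/mL, 10 μM compound, 30 min) heated for 3 min across 48°C-58°C and extracted in PBS with 0.5% NP-40 at 4°C. Thermal stability values are relative to control samples and come from duplicates. They are given as log2 fold changes.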

[2] = compound: C[C@@H](Oc1cc(-c2cnn(C3CCNCC3)c2)cnc1N)c1c(Cl)ccc(F)c1Cl [crizotinib]
Method in brief: as §1

[3] = compound: C[C@@H]1COCCN1C2=NC(=NC(=C2)C3(CC3)S(=O)(=O)C)C4=C5C=CNC5=CC=C4
Method in brief: as §1

[4] = compound: C[C@H](C1=CC=C(C=C1)C(=O)NC2=C3C=CNC3=NC=C2)N
Method in brief: as §1

[5] = compound: C[C@H](Nc1ncnc2nc[nH]c12)c1cc2cccc(Cl)c2c(=O)n1-c1ccccc1 [duvelisib]
Method in brief: as §1

[6] = compound: Cc1cc(Nc2cc(CN3CCOCC3)c3nc(C)c(Cc4ccc(Cl)cc4F)n3n2)n[nH]1 [gandotinib]
Method in brief: as §1

[7] = compound: Cc1cc(Nc2cc(N3CCN(C)CC3)nc(Sc3ccc(NC(=O)C4CC4)cc3)n2)n[nH]1 [tozasertib]
Method in brief: as §1

[8] = compound: Cc1cc(SCc2sc(-c3ccc(C(F)(F)F)cc3)nc2C)ccc1OCC(=O)O
Method in brief: as §1

[9] = compound: Cc1ccc(-n2nc(C(C)(C)C)cc2NC(=O)Nc2ccc(OCCN3CCOCC3)c3ccccc23)cc1 [doramapimod]
Method in brief: as §1

[10] = compound: Cc1ccc(C(=O)N(CCCN)[C@@H](c2nc3cc(Cl)ccc3c(=O)n2Cc2ccccc2)C(C)C)cc1 [ispinesib]
Method in brief: as §1

[11] = compound: Cc1ccc(NC(=O)c2ccc(CN3CC[C@H](N(C)C)C3)c(C(F)(F)F)c2)cc1Nc1nccc(-c2cncnc2)n1 [bafetinib]
Method in brief: as §1

[12] = compound: Cc1cccc(CC(=O)N2CCc3c2ccc(-c2cn(C)c4ncnc(N)c24)c3F)n1
Method in brief: as §1

[13] = compound: Cc1cn(-c2cc(NC(=O)c3ccc(C)c(Nc4nccc(-c5cccnc5)n4)c3)cc(C(F)(F)F)c2)cn1 [nilotinib]
Method in brief: as §1

[14] = compound: Cc1nc(Nc2n[nH]c3c2CN(C(=O)N[C@H](CN(C)C)c2ccccc2)C3(C)C)c2sccc2n1
Method in brief: as §1

[15] = compound: Cc1nc(Nc2ncc(C(=O)Nc3c(C)cccc3Cl)s2)cc(N2CCN(CCO)CC2)n1 [dasatinib]
Method in brief: as §1

[16] = compound: Cc1ncc(-c2ccnc(Nc3ccc(S(C)(=O)=O)cc3)n2)n1C(C)C
Method in brief: as §1

[17] = compound: Cn1cc(-c2ccc3c(c2)CCN3C(=O)Cc2cccc(C(F)(F)F)c2)c2c(N)ncnc21
Method in brief: as §1

[18] = compound: Cn1cc(-c2ccc3nnc(C(F)(F)c4ccc5ncccc5c4)n3n2)cn1
Method in brief: as §1

[19] = compound: Cn1cncc1[C@@](N)(c1ccc(Cl)cc1)c1ccc2c(c1)c(-c1cccc(Cl)c1)cc(=O)n2C [tipifarnib]
Method in brief: as §1

[20] = compound: FC(F)(F)c1ccc(/C=C/c2nc(COc3ccc(CCCCn4ccnn4)cc3)co2)cc1 [mubritinib]
Method in brief: as §1

Measured: log2 fold change

MRPL21 (UniProt Q7Z2W9)
inactive: [1] 0.034 | [2] 0.005 | [3] -0.128 | [4] 0.192 | [5] -0.133 | [6] -0.031 | [7] 0.02 | [8] 0.155 | [9] 0.11 | [10] -0.12 | [11] 0.199 | [12] 0.052 | [13] -0.116 | [14] 0.186 | [15] -0.001 | [16] -0.018 | [17] -0.089 | [18] -0.042 | [19] 0.17 | [20] 0.021

MICAL3 (UniProt Q7RTP6)
inactive: [1] 0.035 | [2] -0.081 | [3] 0.05 | [4] 0.228 | [5] 0.09 | [6] 0 | [7] -0.073 | [8] 0.092 | [9] -0.016 | [10] -0.158 | [11] -0.054 | [12] -0.077 | [13] 0.023 | [14] -0.061 | [15] -0.109 | [16] -0.011 | [17] 0.041 | [18] 0.079 | [19] 0.075 | [20] 0.121

MRPL32 (UniProt Q9BYC8)
inactive: [1] -0.052 | [2] 0.013 | [3] -0.138 | [4] 0.126 | [5] -0.157 | [6] 0.087 | [7] -0.086 | [8] -0.009 | [9] -0.042 | [10] -0.202 | [11] -0.01 | [12] -0.089 | [13] 0.073 | [14] 0.071 | [15] 0.152 | [16] -0.016 | [17] -0.217 | [18] -0.071 | [19] 0.157 | [20] -0.184

MPP6 (UniProt Q9NZW5)
inactive: [1] 0.077 | [2] -0.02 | [3] 0.055 | [4] -0.121 | [5] -0.005 | [6] 0.007 | [7] -0.094 | [8] 0.017 | [9] 0.009 | [10] -0.028 | [11] -0.024 | [12] -0.019 | [13] 0.033 | [14] -0.106 | [15] -0.025 | [16] -0.079 | [17] 0.074 | [18] -0.01 | [19] 0.073 | [20] -0.017

MPZL1 (UniProt O95297)
inactive: [1] 0 | [2] 0.17 | [3] 0.02 | [4] -0.084 | [5] 0.065 | [6] 0.1 | [7] -0.097 | [8] -0.077 | [9] -0.015 | [10] 0.035 | [11] -0.015 | [12] -0.094 | [13] 0.021 | [14] 0.008 | [15] 0.042 | [16] 0.015 | [17] 0.087 | [18] 0.015 | [19] -0.007 | [20] 0.025

MRPL45 (UniProt Q9BRJ2)
inactive: [1] 0.031 | [2] 0.048 | [3] -0.016 | [4] 0.162 | [5] -0.011 | [6] -0.035 | [7] -0.054 | [8] 0.177 | [9] 0.077 | [10] -0.118 | [11] 0.218 | [12] 0.117 | [13] -0.213 | [14] 0.146 | [15] -0.05 | [16] 0.004 | [17] -0.021 | [18] 0.006 | [19] 0.091 | [20] -0.013

MRGBP (UniProt Q9NV56)
inactive: [1] 0.048 | [2] 0.021 | [3] -0.034 | [4] -0.001 | [5] 0.027 | [6] 0.023 | [7] 0.029 | [8] 0 | [9] 0.015 | [10] 0.024 | [11] -0.075 | [12] 0.211 | [13] -0.014 | [14] -0.028 | [15] -0.119 | [16] -0.016 | [17] -0.012 | [18] 0.006 | [19] 0.045 | [20] 0.092

MRPL43 isoform 4 (UniProt Q8N983)
inactive: [1] 0.153 | [2] 0.069 | [3] 0.025 | [4] 0.196 | [5] -0.138 | [6] -0.014 | [7] 0.037 | [8] 0.167 | [9] 0.132 | [10] -0.102 | [11] 0.128 | [12] 0.067 | [13] -0.114 | [14] 0.108 | [15] 0.062 | [16] -0.112 | [17] -0.129 | [18] 0 | [19] 0.17 | [20] 0.001

MRPL14 (UniProt Q6P1L8)
inactive: [1] 0.091 | [2] -0.069 | [3] 0.031 | [4] -0.026 | [5] -0.079 | [6] 0.02 | [7] 0.019 | [8] -0.023 | [9] 0.052 | [10] -0.127 | [11] 0.091 | [12] 0.073 | [13] -0.046 | [14] 0.033 | [15] -0.024 | [16] -0.035 | [17] 0.038 | [18] -0.043 | [19] 0.001 | [20] 0.097

MOSPD2 (UniProt Q8NHP6)
inactive: [1] 0.047 | [2] 0.033 | [3] 0.031 | [4] -0.094 | [5] 0.009 | [6] -0.023 | [7] 0.068 | [8] 0.018 | [9] 0.077 | [10] -0.047 | [11] -0.087 | [12] -0.035 | [13] 0.024 | [14] 0.029 | [15] 0.014 | [16] -0.061 | [17] -0.012 | [18] 0.006 | [19] 0.054 | [20] 0.125

4 successive records out of the list so far, quoted:
MRPL45 (UniProt Q9BRJ2)
inactive: [1] 0.031 | [2] 0.048 | [3] -0.016 | [4] 0.162 | [5] -0.011 | [6] -0.035 | [7] -0.054 | [8] 0.177 | [9] 0.077 | [10] -0.118 | [11] 0.218 | [12] 0.117 | [13] -0.213 | [14] 0.146 | [15] -0.05 | [16] 0.004 | [17] -0.021 | [18] 0.006 | [19] 0.091 | [20] -0.013

MRGBP (UniProt Q9NV56)
inactive: [1] 0.048 | [2] 0.021 | [3] -0.034 | [4] -0.001 | [5] 0.027 | [6] 0.023 | [7] 0.029 | [8] 0 | [9] 0.015 | [10] 0.024 | [11] -0.075 | [12] 0.211 | [13] -0.014 | [14] -0.028 | [15] -0.119 | [16] -0.016 | [17] -0.012 | [18] 0.006 | [19] 0.045 | [20] 0.092

MRPL43 isoform 4 (UniProt Q8N983)
inactive: [1] 0.153 | [2] 0.069 | [3] 0.025 | [4] 0.196 | [5] -0.138 | [6] -0.014 | [7] 0.037 | [8] 0.167 | [9] 0.132 | [10] -0.102 | [11] 0.128 | [12] 0.067 | [13] -0.114 | [14] 0.108 | [15] 0.062 | [16] -0.112 | [17] -0.129 | [18] 0 | [19] 0.17 | [20] 0.001

MRPL14 (UniProt Q6P1L8)
inactive: [1] 0.091 | [2] -0.069 | [3] 0.031 | [4] -0.026 | [5] -0.079 | [6] 0.02 | [7] 0.019 | [8] -0.023 | [9] 0.052 | [10] -0.127 | [11] 0.091 | [12] 0.073 | [13] -0.046 | [14] 0.033 | [15] -0.024 | [16] -0.035 | [17] 0.038 | [18] -0.043 | [19] 0.001 | [20] 0.097

Following part:

MRPL18 (UniProt Q9H0U6)
inactive: [1] 0.008 | [2] 0.025 | [3] -0.219 | [4] 0.132 | [5] -0.155 | [6] 0.071 | [7] 0.089 | [8] 0.227 | [9] 0.052 | [10] -0.165 | [11] 0.196 | [12] 0.156 | [13] -0.02 | [14] 0.147 | [15] -0.058 | [16] -0.042 | [17] -0.174 | [18] 0.042 | [19] 0.163 | [20] 0.018

MRPL13 (UniProt Q9BYD1)
inactive: [1] 0.008 | [2] 0.058 | [3] -0.015 | [4] 0.232 | [5] -0.046 | [6] 0.102 | [7] 0.085 | [8] 0.034 | [9] 0.082 | [10] -0.051 | [11] 0.085 | [12] 0.069 | [13] -0.271 | [14] 0.07 | [15] 0.044 | [16] -0.037 | [17] -0.087 | [18] -0.021 | [19] 0.089 | [20] -0.03

MPST isoform 2 (UniProt P25325)
inactive: [1] 0.015 | [2] 0.185 | [3] 0.046 | [4] -0.012 | [5] 0.048 | [6] -0.031 | [7] 0.08 | [8] 0.033 | [9] -0.038 | [10] 0.137 | [11] 0.02 | [12] -0.021 | [13] -0.017 | [14] 0.071 | [15] 0.01 | [16] 0.025 | [17] -0.016 | [18] 0.002 | [19] 0.004 | [20] -0.106

MOCS1 isoform 8 (UniProt Q9NZB8)
inactive: [1] -0.015 | [2] 0.074 | [3] 0.068 | [4] -0.166 | [5] 0.05 | [6] -0.162 | [7] 0.037 | [8] 0.008 | [9] 0.017 | [10] -0.025 | [11] 0.016 | [12] -0.017 | [13] -0.048 | [14] -0.016 | [15] -0.057 | [16] -0.087 | [17] 0.071 | [18] 0.035 | [19] -0.038 | [20] -0.024

MOB1B isoform 2 (UniProt Q7L9L4)
inactive: [1] 0.049 | [2] -0.059 | [3] 0.05 | [4] -0.057 | [5] 0.009 | [6] -0.026 | [7] 0 | [8] -0.04 | [9] 0.004 | [10] -0.009 | [11] -0.039 | [12] -0.012 | [13] 0.012 | [14] -0.033 | [15] 0.01 | [16] -0.015 | [17] 0.043 | [18] -0.004 | [19] -0.006 | [20] 0.081
